From article PMC7989706
No constants are given. Whether binding was seen depends on the method and setting. Binding seen in cells or lysates may run through a third protein.

Molecular target: obesity-associated protein (FTO) (human (endogenous in MHCC97H)) (UniProt Q9C0B1)
Assay: co-IP; IP from cell lysate (Pierce IP Lysis Buffer), antibody with protein A/G beads overnight at 4 C, three washes with lysis buffer, western blot; cell line not stated

binding: no binding
B1: S-adenosylmethionine decarboxylase proenzyme (AMD1) (enzyme, UniProt P17707 1-334)
chain: MEAAHFFEGTEKLLEVWFSRQQPDANQGSGDLRTIPRSEWDILLKDVQCSIISVTKTDKQEAYVLSESSMFVSKRRFILKTCGTTLLLKALVPLLKLARDYSGFDSIQSFFYSRKNFMKPSHQGYPHRNFQEEIEFLNAIFPNGAAYCMGRMNSDCWYLYTLDFPESRVISQPDQTLEILMSELDPAVMDQFYMKDGVTAKDVTRESGIRDLIPGSVIDATMFNPCGYSMNGMKSDGTYWTIHITPEPEFSYVSFETNLSQTSYDDLIRKVVEVFKPGKFVTTLFVNQSSKCRTVLASPQKIEGFKRLDCQSAMFNDYNFVFTSFAKKQQQQQS
